{
  "source": "patent US4139628A",
  "about": "“Amino-spiro[oxa(or thia)cycloalkane-penam]-carboxylic acid derivatives” (U C B, Societe Anonyme, priority 1977, dated 1979)",
  "system": "beta-lactamase TEM",
  "assay": "hydrolysis kinetics in the presence of beta-lactamase (residual activity)",
  "type": "biochemical, Gram-negative bacteria",
  "details": "as compared with ampicillin",
  "data": [
    {"smiles": "NC(C(=O)NC1C(=O)N2C1SC1(CC[S+]([O-])CC1)C2C(=O)O)c1ccccc1", "note": "(centres unmarked) [Compound J, 6-(2\"-amino-2\"-phenylacetamido)-2',3',5',6'-tetrahydro-spiro[penam-2,4'-[4H]thiopyran]-3-carboxylic acid 1'-oxide]", "values": [
      {"measurement": "resistance to beta-lactamase, in words", "result": "No change in behavior"}
    ]},
    {"smiles": "NC(C(=O)NC1C(=O)N2C1SC1(CCSCC1)C2C(=O)O)c1ccccc1", "note": "(centres unmarked) [Compound F, 6-(2\"-amino-2\"-phenylacetamido)-2',3',5',6'-tetrahydro-spiro[penam-2,4'-[4H]thiopyran]-3-carboxylic acid]", "values": [
      {"measurement": "resistance to beta-lactamase, in words", "result": "increased resistance"}
    ]}
  ]
}
